{"source": "PubChem BioAssay AID1259308 | NCATS, 2017", "test": "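Candidate targets for better recombinant protein yield in mammalian cells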 (primary screen)", "cells": "human HEK293 embryonic kidney cells stably expressing firefly luciferase (HEK-CMV-Luc2-Hygro)", "knock-down reagent": "single siRNA against human genes, 0.8 pmol siRNA per well", "duration": "72 h", "detection": "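Luciferase light (ONE-Glo) measured on one replicate plate set and viability (CellTiter-Glo) on the other, scaled to a negative control siRNA, with robust z-scores and luciferase per cell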", "reading the numbers": "total luciferase, z-score: higher = more reporter protein produced", "active means": "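Active when the median/MAD z-score for overall luciferase is greater than 3; a gene was taken forward for validation with new siRNAs if at least two of its three siRNAs passed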", "calls": "active = raised luciferase; inactive = no rise", "note": "Here is an unselected part of about 59,000 deposited reagents. In the full data, about 1,510 (2.6%) are marked active. 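Calls use total luciferase alone and ignore viability, so some active siRNAs may act by altering cell number.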 The numbers tell different reagents against one gene apart. Not all columns of the deposit are shown."}
{"target": "SYTL2 (synaptotagmin like 2)", "reagent": 1, "total luciferase, z-score": 0.148, "activity call": "inactive"}
{"target": "SYTL2 (synaptotagmin like 2)", "reagent": 2, "total luciferase, z-score": -1.02, "activity call": "inactive"}
{"target": "SYTL2 (synaptotagmin like 2)", "reagent": 3, "total luciferase, z-score": 0.581, "activity call": "inactive"}
{"target": "HEYL", "reagent": 1, "total luciferase, z-score": -2.87, "activity call": "inactive"}
{"target": "HEYL", "reagent": 2, "total luciferase, z-score": -1.81, "activity call": "inactive"}
{"target": "HEYL", "reagent": 3, "total luciferase, z-score": 0.183, "activity call": "inactive"}
{"target": "UBE2Z (ubiquitin conjugating enzyme E2 Z)", "reagent": 1, "total luciferase, z-score": -0.716, "activity call": "inactive"}
{"target": "UBE2Z (ubiquitin conjugating enzyme E2 Z)", "reagent": 2, "total luciferase, z-score": -0.327, "activity call": "inactive"}
{"target": "UBE2Z (ubiquitin conjugating enzyme E2 Z)", "reagent": 3, "total luciferase, z-score": -2.11, "activity call": "inactive"}
{"target": "CICP26 (capicua transcriptional repressor pseudogene 26)", "reagent": 1, "total luciferase, z-score": 0.174, "activity call": "inactive"}
{"target": "CICP26 (capicua transcriptional repressor pseudogene 26)", "reagent": 2, "total luciferase, z-score": -0.115, "activity call": "inactive"}
{"target": "CICP26 (capicua transcriptional repressor pseudogene 26)", "reagent": 3, "total luciferase, z-score": 0.887, "activity call": "inactive"}
{"target": "GRN (granulin precursor)", "reagent": 1, "total luciferase, z-score": 0.0984, "activity call": "inactive"}
{"target": "GRN (granulin precursor)", "reagent": 2, "total luciferase, z-score": -0.919, "activity call": "inactive"}
{"target": "GRN (granulin precursor)", "reagent": 3, "total luciferase, z-score": -1.95, "activity call": "inactive"}
{"target": "C10orf143 (chromosome 10 open reading frame 143)", "reagent": 1, "total luciferase, z-score": 0.246, "activity call": "inactive"}
{"target": "C10orf143 (chromosome 10 open reading frame 143)", "reagent": 2, "total luciferase, z-score": -0.202, "activity call": "inactive"}
{"target": "C10orf143 (chromosome 10 open reading frame 143)", "reagent": 3, "total luciferase, z-score": -0.0352, "activity call": "inactive"}
{"target": "ANAPC11 (anaphase promoting complex subunit 11)", "reagent": 1, "total luciferase, z-score": -0.101, "activity call": "inactive"}
{"target": "ANAPC11 (anaphase promoting complex subunit 11)", "reagent": 2, "total luciferase, z-score": -1.88, "activity call": "inactive"}
{"target": "ANAPC11 (anaphase promoting complex subunit 11)", "reagent": 3, "total luciferase, z-score": -0.245, "activity call": "inactive"}
{"target": "LGI3 (leucine rich repeat LGI family member 3)", "reagent": 1, "total luciferase, z-score": -0.284, "activity call": "inactive"}
{"target": "LGI3 (leucine rich repeat LGI family member 3)", "reagent": 2, "total luciferase, z-score": 0.778, "activity call": "inactive"}
{"target": "LGI3 (leucine rich repeat LGI family member 3)", "reagent": 3, "total luciferase, z-score": -1.34, "activity call": "inactive"}
{"target": "SULT1B1 (sulfotransferase family 1B member 1)", "reagent": 1, "total luciferase, z-score": 0.234, "activity call": "inactive"}
{"target": "SULT1B1 (sulfotransferase family 1B member 1)", "reagent": 2, "total luciferase, z-score": 1.59, "activity call": "inactive"}
{"target": "SULT1B1 (sulfotransferase family 1B member 1)", "reagent": 3, "total luciferase, z-score": -0.222, "activity call": "inactive"}
{"target": "LMO3 (LIM domain only 3)", "reagent": 1, "total luciferase, z-score": -0.0482, "activity call": "inactive"}
{"target": "LMO3 (LIM domain only 3)", "reagent": 2, "total luciferase, z-score": -0.0489, "activity call": "inactive"}
{"target": "LMO3 (LIM domain only 3)", "reagent": 3, "total luciferase, z-score": 0.949, "activity call": "inactive"}
{"target": "CAMK1 (calcium/calmodulin dependent protein kinase I)", "reagent": 1, "total luciferase, z-score": -1.53, "activity call": "inactive"}
{"target": "CAMK1 (calcium/calmodulin dependent protein kinase I)", "reagent": 2, "total luciferase, z-score": -0.203, "activity call": "inactive"}
{"target": "CAMK1 (calcium/calmodulin dependent protein kinase I)", "reagent": 3, "total luciferase, z-score": 0.356, "activity call": "inactive"}
{"target": "ASB14 (ankyrin repeat and SOCS box containing 14)", "reagent": 1, "total luciferase, z-score": 1.91, "activity call": "inactive"}
{"target": "ASB14 (ankyrin repeat and SOCS box containing 14)", "reagent": 2, "total luciferase, z-score": 0.0627, "activity call": "inactive"}
{"target": "ASB14 (ankyrin repeat and SOCS box containing 14)", "reagent": 3, "total luciferase, z-score": -0.565, "activity call": "inactive"}
{"target": "PPP1CB (protein phosphatase 1 catalytic subunit beta)", "reagent": 1, "total luciferase, z-score": 0.41, "activity call": "inactive"}
{"target": "PPP1CB (protein phosphatase 1 catalytic subunit beta)", "reagent": 2, "total luciferase, z-score": 0.0909, "activity call": "inactive"}
{"target": "PPP1CB (protein phosphatase 1 catalytic subunit beta)", "reagent": 3, "total luciferase, z-score": 1.28, "activity call": "inactive"}
{"target": "TXK (TXK tyrosine kinase)", "reagent": 1, "total luciferase, z-score": -0.364, "activity call": "inactive"}
{"target": "TXK (TXK tyrosine kinase)", "reagent": 2, "total luciferase, z-score": -1.38, "activity call": "inactive"}
{"target": "TXK (TXK tyrosine kinase)", "reagent": 3, "total luciferase, z-score": 0.125, "activity call": "inactive"}
